Paper PMC7755189
For at least one entry, the source does not settle the construct or the ends of the probe. Weaker means in comparison with the reference protein, sequence or condition of that experiment.

Protein sequences, listed by entry. Tags and fused reporters are not part of them.
UniProt P49591, whole entry S101D/S241D: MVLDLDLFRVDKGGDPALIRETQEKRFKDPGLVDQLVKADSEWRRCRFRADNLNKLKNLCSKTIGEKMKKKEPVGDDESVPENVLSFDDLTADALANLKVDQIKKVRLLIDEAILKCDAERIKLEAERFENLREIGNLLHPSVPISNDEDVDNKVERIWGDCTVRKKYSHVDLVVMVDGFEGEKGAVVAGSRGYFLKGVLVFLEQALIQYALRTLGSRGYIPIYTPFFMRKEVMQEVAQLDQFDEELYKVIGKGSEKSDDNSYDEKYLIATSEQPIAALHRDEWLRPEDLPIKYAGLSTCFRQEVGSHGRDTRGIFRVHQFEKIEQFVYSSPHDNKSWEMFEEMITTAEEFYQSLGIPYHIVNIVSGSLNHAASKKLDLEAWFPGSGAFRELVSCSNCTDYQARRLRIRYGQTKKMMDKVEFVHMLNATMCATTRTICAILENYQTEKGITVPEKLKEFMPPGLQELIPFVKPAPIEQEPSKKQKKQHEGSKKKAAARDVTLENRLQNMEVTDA

Target: SerRS DD S101D,S241D (Homo sapiens) (UniProt P49591)
Assay: EMSA
Settings: strongly attenuated relative to WT; EMSA: 20 mM Tris-HCl pH 8.0, 60 mM KCl, 5 mM MgCl2, 0.1 mg/mL BSA, 10 ng/uL poly(dG-dC), 1 mM DTT, 30 min, room temperature; 0.08 pmol labeled DNA; 5% native PAGE; recombinant protein; protein details: C-terminal His6; label: 5'-32P

GGCGGGGCGGAGCCATGCGCCCCCCCC (double strand) [VEGFA promoter SerRS binding site 27 bp]
binding result: binds more weakly
